In PubChem BioAssay AID1487 (National Center for Advancing Translational Sciences (NCATS), 2009):
The whole screen tested about 200,000 compounds, of which about 25 (0.01%) were called active. Inconclusive means that the source gave no clear call. Such entries were picked first, then a sample of the others. The call rests on the fitted dose curve; in most records, active means well fitted inhibition curve with a large enough effect in the signal ratio, with a control signal flat (not every such curve was filed as active); inconclusive means small, poorly fitted or top-dose-only effect, or effect the other way, or a change in a side signal; inactive means flat fitted curve, though single readings scatter; the % refers to the signal ratio. A potency beside an inconclusive call is a rough fit, not a confirmed value.
On the % scale 0 is the no-effect control and ±100 the full control effect; potency means the concentration at half of the fitted maximal effect.

Assay: qHTS Assay for Modulators of Lamin A Splicing
Conditions: HeLa LMNA splicing GFP/RFP minigene ratio, 48 h; ratio change, negative = inhibition: at 46.1 µM (top of the series) unless noted
Outline: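 S3 HeLa cells stably expressing lamin A-EGFP splicing minigene plus DsRed2, 600 cells/well, 48 h compound exposure at 37C. Laser-scanning cytometry; analysed as GFP (500-530 nm)/RFP (575-640 nm) total intensity ratio; 0.5% DMSO vehicle.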
With `CCCCC(=O)NNC(=S)NC(=O)c1ccc([N+](=O)[O-])cc1` the ratio change, negative = inhibition was inconclusive: -39.7% [at 46 µM]. In the case of `CCOc1ccccc1Nc1nnc(SCc2ccc(C(=O)OC)o2)s1`, the ratio change, negative = inhibition is reported as inconclusive: 11.3%. In the case of `C=CCc1cccc2cc(C(=O)NC3=C(C#N)CCC3)c(=O)oc12`, the “ratio change, negative = inhibition” value is reported as inactive: -2.88%. For `Cn1c(=NC(=O)COc2ccccc2)sc2ccccc21`, the “ratio change, negative = inhibition” value was inactive: 40.5% [at 46 µM]. In the case of `O=C(NO)c1ccccc1O`, the ratio change, negative = inhibition is reported as inconclusive: -7.12%. In the case of `O=C(c1ccccc1)c1ccc(C(=O)N2CCN(c3ccc(F)cc3)CC2)o1`, the Potency is reported as inconclusive: 22.4 µM [falling, single point]. In the case of `CC(C)c1ccc(-c2nc(C(N)=O)c3c(n2)n(-c2ccc4c(c2)OCO4)c(=O)n3C)cc1`, the ratio change, negative = inhibition is reported as inconclusive: 52.2% [at 46 µM]. For `Cc1ccc(CNC(=O)C2CCN(S(=O)(=O)c3ccc4[nH]c(=O)ccc4c3)CC2)cc1`, the ratio change, negative = inhibition was inconclusive: -20.7% [at 46 µM]. With `O/N=C/c1ccccc1Oc1ccccc1` the “ratio change, negative = inhibition” value was inactive: -13.2%. For `COc1ccc(S(=O)(=O)Nc2cc3c4c(oc3c3ccccc23)CC(C)(C)CC4=O)cc1`, the “ratio change, negative = inhibition” value was inactive: 2.83%. In the case of `Cc1nn(-c2ccccc2)c2c1N(CC(=O)N1CCN(c3ccc(F)cc3)CC1)C(=O)CS2`, the “ratio change, negative = inhibition” value is reported as inactive: 7.33% [at 46 µM]. For `CN(C1CCCC1)C1CCN(C(=O)CNC(=O)/C=C/c2ccc(F)cc2)CC1`, the ratio change, negative = inhibition was inconclusive: -30.7%. For `COc1cc(/C=C2\CC/C(=C\c3cc(OC)c(O)c(OC)c3)C2=O)cc(OC)c1O`, the Potency was inconclusive: 11.2 µM [cytotoxic, single point]. With `CCOc1ccc(C(C)(C)C)cc1S(=O)(=O)N1CCOCC1` the “ratio change, negative = inhibition” value was inactive: 7.59%. In the case of `Cc1cccc(Nc2nnc(SCC(=O)c3ccc(Br)s3)s2)c1C`, the ratio change, negative = inhibition is reported as inconclusive: -37%. With `CCOc1ccccc1-n1nnnc1SCC(=O)Nc1cc(C)on1` the “ratio change, negative = inhibition” value was inactive: 8.71%. In the case of `CC(C)(C)c1ccc(C(=O)Nc2ccc3c(c2)CCCN3C(=O)c2cccs2)cc1`, the Potency is reported as inconclusive: 0.708 µM [inhibitor, full curve]. For `CCc1ccc(NC(=O)C(=O)NCC(c2cccnc2)N2CCN(c3ccc(F)cc3)CC2)cc1` (configuration not stated), the ratio change, negative = inhibition was inconclusive: -31% [at 46 µM]. In the case of `Cc1cc2cc(CN(Cc3ccco3)C(=O)NCc3ccccc3)c(=O)[nH]c2cc1C`, the “ratio change, negative = inhibition” value is reported as inactive: 5.78%. For `CC(=O)Nc1ccc(NC(=O)C(C)OC(=O)c2ccccc2C(=O)c2ccc(Cl)c([N+](=O)[O-])c2)cc1` (configuration not stated), the Potency was inconclusive: 35.5 µM [falling, single point]. In the case of `N#CC1=C2SCC(O)(c3ccccc3)N2C(=O)CC1c1ccccc1F` (configuration not stated), the ratio change, negative = inhibition is reported as inconclusive: -34.1%. With `COc1ccc(OC)c(NC(=S)NCCSc2ccc(C)cc2)c1` the ratio change, negative = inhibition was inconclusive: -42.4%.
